Reference: the supplement of paper PMC10849652
This is one part of the list.

By UniProt entry, the sequences of proteins in these tests, tags left out. Where a name states a change or a piece, a line headed by the entry shows the natural chain unless it says otherwise.
UniProt Q01196, whole entry, looked up: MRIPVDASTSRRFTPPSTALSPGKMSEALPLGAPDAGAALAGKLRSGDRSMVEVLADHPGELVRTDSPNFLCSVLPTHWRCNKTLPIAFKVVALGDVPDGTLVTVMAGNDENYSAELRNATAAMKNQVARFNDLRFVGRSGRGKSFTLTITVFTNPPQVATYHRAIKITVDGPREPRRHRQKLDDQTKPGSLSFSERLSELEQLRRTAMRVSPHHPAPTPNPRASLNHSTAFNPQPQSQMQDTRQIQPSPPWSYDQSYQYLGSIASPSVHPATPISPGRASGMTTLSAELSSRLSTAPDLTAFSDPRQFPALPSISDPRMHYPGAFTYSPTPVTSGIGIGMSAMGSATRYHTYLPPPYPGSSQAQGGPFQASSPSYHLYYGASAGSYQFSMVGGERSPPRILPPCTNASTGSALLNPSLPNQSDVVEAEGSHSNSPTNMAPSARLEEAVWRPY
UniProt P05386, whole entry, looked up: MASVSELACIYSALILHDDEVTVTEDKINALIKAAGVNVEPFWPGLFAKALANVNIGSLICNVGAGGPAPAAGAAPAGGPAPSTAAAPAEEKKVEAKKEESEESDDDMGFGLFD
UniProt P26447: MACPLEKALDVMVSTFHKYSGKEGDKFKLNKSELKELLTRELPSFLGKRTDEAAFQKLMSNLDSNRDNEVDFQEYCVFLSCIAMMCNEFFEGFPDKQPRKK
UniProt Q96T51: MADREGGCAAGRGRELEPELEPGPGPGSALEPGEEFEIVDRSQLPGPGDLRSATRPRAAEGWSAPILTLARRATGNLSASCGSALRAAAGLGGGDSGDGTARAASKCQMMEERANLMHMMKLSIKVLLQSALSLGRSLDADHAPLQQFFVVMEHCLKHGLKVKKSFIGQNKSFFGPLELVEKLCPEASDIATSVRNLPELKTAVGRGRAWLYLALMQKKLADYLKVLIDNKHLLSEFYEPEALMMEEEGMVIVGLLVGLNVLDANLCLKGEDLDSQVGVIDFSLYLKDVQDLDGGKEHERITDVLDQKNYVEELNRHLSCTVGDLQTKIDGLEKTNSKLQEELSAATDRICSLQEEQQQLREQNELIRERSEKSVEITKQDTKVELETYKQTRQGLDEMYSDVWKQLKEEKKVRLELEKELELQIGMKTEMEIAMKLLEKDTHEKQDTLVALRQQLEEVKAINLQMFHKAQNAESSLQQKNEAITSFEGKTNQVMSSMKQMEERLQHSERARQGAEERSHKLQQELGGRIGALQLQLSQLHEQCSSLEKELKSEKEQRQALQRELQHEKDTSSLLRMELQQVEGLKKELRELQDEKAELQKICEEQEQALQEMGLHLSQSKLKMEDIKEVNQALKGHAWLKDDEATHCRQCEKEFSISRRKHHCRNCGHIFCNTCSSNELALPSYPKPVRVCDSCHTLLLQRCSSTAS
UniProt P51812, whole entry, looked up: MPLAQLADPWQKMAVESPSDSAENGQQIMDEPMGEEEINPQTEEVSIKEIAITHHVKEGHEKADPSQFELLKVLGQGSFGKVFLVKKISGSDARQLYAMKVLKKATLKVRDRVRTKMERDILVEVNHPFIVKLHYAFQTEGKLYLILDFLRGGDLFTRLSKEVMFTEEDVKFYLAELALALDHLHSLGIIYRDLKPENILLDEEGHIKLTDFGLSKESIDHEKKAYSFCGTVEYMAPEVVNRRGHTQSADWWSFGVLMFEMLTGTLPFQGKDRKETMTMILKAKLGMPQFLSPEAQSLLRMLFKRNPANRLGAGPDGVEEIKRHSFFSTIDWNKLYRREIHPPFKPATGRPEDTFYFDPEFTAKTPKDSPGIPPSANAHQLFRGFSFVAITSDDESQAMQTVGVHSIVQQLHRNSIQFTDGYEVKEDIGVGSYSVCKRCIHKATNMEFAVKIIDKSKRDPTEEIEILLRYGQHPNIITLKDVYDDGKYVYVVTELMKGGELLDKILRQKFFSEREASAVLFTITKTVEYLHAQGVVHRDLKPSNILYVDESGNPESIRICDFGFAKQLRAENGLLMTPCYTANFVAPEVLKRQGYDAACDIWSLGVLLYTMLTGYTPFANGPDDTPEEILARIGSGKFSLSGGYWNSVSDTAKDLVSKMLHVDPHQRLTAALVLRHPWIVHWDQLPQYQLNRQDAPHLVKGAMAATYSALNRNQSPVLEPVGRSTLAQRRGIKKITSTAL

Key:
Assay in all cases: log2 fold change, soluble protein after heating vs DMSO (PISA); higher = thermal stabilisation; K562 lysate, 10 uM; active = over 0.2 and 3.5 SD of the protein, either way, in both replicates (recomputed)
vemurafenib = compound: CCCS(=O)(=O)Nc1ccc(F)c(C(=O)c2c[nH]c3ncc(-c4ccc(Cl)cc4)cc23)c1F [vemurafenib]
Procedure, shortened: (§1)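 A 30 min treatment with 10 μM compound was applied to crude K562 extract at 1 mg/mL protein in PBS pH 7.4 with 1 mM MgCl2. Heating for 3 min spanned 48°C-58°C, after which aliquots were pooled, adjusted to 0.5% NP-40 at 4°C and spun at 21,000xg for 90 min. TMTpro 16plex LC-MS/MS of the supernatant, with channel sums equalised, gave values recorded as log-two fold change in thermal stability against solvent controls, from duplicates.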

[1] = compound: CCCS(=O)(=O)Nc1ccc(F)c(C(=O)c2c[nH]c3ncc(Cl)cc23)c1F
Procedure, shortened: as §1

barasertib = compound: CCN(CCCOc1ccc2c(Nc3cc(CC(=O)Nc4cccc(F)c4)[nH]n3)ncnc2c1)CCOP(=O)(O)O [barasertib]
Procedure, shortened: as §1

[2] = compound: CC[C@@H]1C(=O)N(C)c2cnc(Nc3ccc(C(=O)NC4CCN(C)CC4)cc3OC)nc2N1C1CCCC1
Procedure, shortened: as §1

volasertib = compound: CC[C@@H]1C(=O)N(C)c2cnc(Nc3ccc(C(=O)N[C@H]4CC[C@H](N5CCN(CC6CC6)CC5)CC4)cc3OC)nc2N1C(C)C [volasertib]
Procedure, shortened: as §1

[3] = compound: CCn1c(C(=O)N(C2CC2)C2CC2)cc2c3c(ncn3C)c(Nc3cc(C)n(C)n3)nc21
Procedure, shortened: as §1

[4] = compound: CCn1cc(-c2ccnc3[nH]c(-c4cccc(CN(C)C)c4)cc23)c(-c2ccc(NC(=O)N(C)C)cc2)n1
Procedure, shortened: as §1

[5] = compound: CN1CCC(CNc2ccc3ncc(-c4cccc(OC(F)(F)F)c4)n3n2)CC1
Procedure, shortened: as §1

saracatinib = compound: CN1CCN(CCOc2cc(OC3CCOCC3)c3c(Nc4c(Cl)ccc5c4OCO5)ncnc3c2)CC1 [saracatinib]
Procedure, shortened: as §1

sotrastaurin = compound: CN1CCN(c2nc(C3=C(c4c[nH]c5ccccc45)C(=O)NC3=O)c3ccccc3n2)CC1 [sotrastaurin]
Procedure, shortened: as §1

alvocidib = compound: CN1CC[C@H](c2c(O)cc(O)c3c(=O)cc(-c4ccccc4Cl)oc23)[C@H](O)C1 [alvocidib]
Procedure, shortened: as §1

Tubastatin A = compound: CN1CCc2c(c3ccccc3n2Cc2ccc(C(=O)NO)cc2)C1 [Tubastatin A]
Procedure, shortened: as §1

[6] = compound: CNC(=O)C1=CC=CC=C1NC2=NC(=NC=C2Cl)NC3=C(C=C(C=C3)N4CCOCC4)OC
Procedure, shortened: as §1

defactinib = compound: CNC(=O)c1ccc(Nc2ncc(C(F)(F)F)c(NCc3nccnc3N(C)S(C)(=O)=O)n2)cc1 [defactinib]
Procedure, shortened: as §1

[7] = compound: CNc1nc(-c2ccc3c(N)n[nH]c3c2)cc(N2C[C@@H](C(=O)NC3CCCCC3)CC[C@H]2C)n1
Procedure, shortened: as §1

encorafenib = compound: COC(=O)N[C@@H](C)CNc1nccc(-c2cn(C(C)C)nc2-c2cc(Cl)cc(NS(C)(=O)=O)c2F)n1 [encorafenib]
Procedure, shortened: as §1

[8] = compound: COC(=O)[C@H](CCSC)NC(=O)C1=C(C=C(C=C1)NC[C@H](CS)N)C2=CC=CC=C2
Procedure, shortened: as §1

alisertib = compound: COc1cc(Nc2ncc3c(n2)-c2ccc(Cl)cc2C(c2c(F)cccc2OC)=NC3)ccc1C(=O)O [alisertib]
Procedure, shortened: as §1

[9] = compound: COc1cc2nc(-c3cc(F)ccc3O)nc(N[C@@H]3CNC[C@H]3C(C)(C)O)c2cc1OC
Procedure, shortened: as §1

gefitinib = compound: COc1cc2ncnc(Nc3ccc(F)c(Cl)c3)c2cc1OCCCN1CCOCC1 [gefitinib]
Procedure, shortened: as §1

Measured: log2 fold change

RUNX1 isoform 8 (UniProt Q01196)
inactive: vemurafenib -0.099 | [1] 0.062 | barasertib 0.011 | [2] -0.055 | volasertib -0.054 | [3] 0.069 | [4] 0.011 | [5] -0.018 | saracatinib 0.022 | sotrastaurin -0.132 | alvocidib 0.037 | Tubastatin A -0.114 | [6] 0.004 | defactinib -0.029 | [7] -0.112 | encorafenib 0.077 | [8] -0.03 | alisertib 0.043 | [9] -0.023 | gefitinib 0.016

RPLP1 (UniProt P05386)
inactive: vemurafenib 0.005 | [1] 0.003 | barasertib 0.059 | [2] -0.019 | volasertib 0.052 | [3] -0.018 | [4] 0.015 | [5] 0.024 | saracatinib 0.001 | sotrastaurin -0.057 | alvocidib 0.033 | Tubastatin A 0.032 | [6] 0.013 | defactinib 0.048 | [7] 0.024 | encorafenib 0.048 | [8] -0.002 | alisertib 0.043 | [9] -0.072 | gefitinib -0.189

RPS19 (UniProt P39019)
inactive: vemurafenib -0.027 | [1] -0.011 | barasertib -0.02 | [2] -0.01 | volasertib 0.017 | [3] -0.001 | [4] 0.063 | [5] -0.047 | saracatinib -0.002 | sotrastaurin 0.012 | alvocidib 0.025 | Tubastatin A 0.018 | [6] -0.011 | defactinib -0.02 | [7] 0.014 | encorafenib -0.021 | [8] 0.059 | alisertib 0.015 | [9] -0.008 | gefitinib -0.019

S100A4 (UniProt P26447)
inactive: vemurafenib -0.021 | [1] 0.054 | [2] -0.123 | volasertib -0.031 | [3] -0.053 | [4] 0.142 | [5] -0.085 | saracatinib 0.197 | sotrastaurin -0.588 | alvocidib 0.018 | Tubastatin A -0.002 | [6] -0.029 | defactinib 0.101 | [7] -0.128 | encorafenib 0.095 | [8] 0.288 | alisertib 0.13 | [9] -0.032 | gefitinib 0.043

RUFY1 (UniProt Q96T51)
inactive: vemurafenib -0.033 | [1] 0.004 | barasertib 0.009 | [2] 0.01 | volasertib -0.002 | [3] 0.009 | [4] -0.021 | [5] 0.019 | saracatinib -0.002 | sotrastaurin 0 | alvocidib 0.015 | Tubastatin A -0.011 | [6] 0.008 | defactinib 0.021 | [7] -0.03 | encorafenib 0.017 | [8] -0.058 | alisertib -0.008 | [9] -0.011 | gefitinib 0.011

RTF1 (UniProt Q92541)
inactive: vemurafenib -0.023 | [1] 0.005 | barasertib -0.019 | [2] -0.03 | volasertib 0.009 | [3] 0.008 | [4] 0 | [5] -0.017 | saracatinib -0.013 | sotrastaurin 0.031 | alvocidib 0.018 | Tubastatin A 0.014 | [6] 0 | defactinib -0.012 | [7] -0.052 | encorafenib 0.04 | [8] -0.023 | alisertib 0.009 | [9] -0.004 | gefitinib 0.042

RPS6KA3 (UniProt P51812)
inactive: vemurafenib 0.031 | [1] 0.005 | barasertib -0.003 | volasertib -0.026 | [3] 0.133 | [4] -0.014 | [5] 0.093 | saracatinib 0.078 | sotrastaurin 0.037 | alvocidib 0.306 | Tubastatin A -0.151 | [7] -0.017 | encorafenib -0.107 | [8] 0.056 | [9] 0.049 | gefitinib -0.025
active: defactinib 0.433
